# Cleaved PARP after 72 h of treatment

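Human melanoma cells were exposed to two drugs together for 72 h in 1,536-well plates and read by automated microscopy after fixing and staining. The read-out is the fraction of cleaved-PARP-positive nuclei, in % of that fraction in the DMSO control; 200 means twice the control level of this apoptosis marker. Concentrations were fixed for each drug; these are the higher of two levels. No replicate spread is given; individual values may be noisy. Basal and induced levels differ widely between cell lines.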
Only some of the drugs and lines screened are listed, without regard to their results.
An entry leaves out what has no value listed here.
A dash means that no value is listed here.

All values are for the listed drug together with palbociclib (200 nM): CC(=O)c1c(C)c2cnc(Nc3ccc(N4CCNCC4)cn3)nc2n(C2CCCC2)c1=O

Drugs:
dasatinib (20 nM): Cc1nc(Nc2ncc(C(=O)Nc3c(C)cccc3Cl)s2)cc(N2CCN(CCO)CC2)n1
nilotinib (1000 nM): Cc1cn(-c2cc(NC(=O)c3ccc(C)c(Nc4nccc(-c5cccnc5)n4)c3)cc(C(F)(F)F)c2)cn1
PF-562271 (400 nM): CN(c1ncccc1CNc1nc(Nc2ccc3c(c2)CC(=O)N3)ncc1C(F)(F)F)S(C)(=O)=O
GW0742 (10000 nM): Cc1cc(SCc2sc(-c3ccc(C(F)(F)F)c(F)c3)nc2C)ccc1OCC(=O)O
A-769662 (10000 nM): N#Cc1c(O)c2c(-c3ccc(-c4ccccc4O)cc3)csc2[nH]c1=O
embelin (6000 nM): CCCCCCCCCCCC1=C(O)C(=O)C=C(O)C1=O
tipifarnib (50 nM): Cn1cncc1[C@@](N)(c1ccc(Cl)cc1)c1ccc2c(c1)c(-c1cccc(Cl)c1)cc(=O)n2C
BMS-536924 (1000 nM): Cc1cc(N2CCOCC2)cc2[nH]c(-c3c(NC[C@@H](O)c4cccc(Cl)c4)cc[nH]c3=O)nc12
NVP-TAE684 (400 nM): COc1cc(N2CCC(N3CCN(C)CC3)CC2)ccc1Nc1ncc(Cl)c(Nc2ccccc2S(=O)(=O)C(C)C)n1
AZD7762 (100 nM): NC(=O)Nc1cc(-c2cccc(F)c2)sc1C(=O)N[C@H]1CCCNC1
lestaurtinib (20 nM): C[C@]12O[C@H](C[C@]1(O)CO)n1c3ccccc3c3c4c(c5c6ccccc6n2c5c31)CNC4=O
pazopanib (2000 nM): Cc1ccc(Nc2nccc(N(C)c3ccc4c(C)n(C)nc4c3)n2)cc1S(N)(=O)=O
FH535 (5000 nM): Cc1cc([N+](=O)[O-])ccc1NS(=O)(=O)c1cc(Cl)ccc1Cl
PLX4720 (400 nM): CCCS(=O)(=O)Nc1ccc(F)c(C(=O)c2c[nH]c3ncc(Cl)cc23)c1F
MK-2206 (2000 nM): NC1(c2ccc(-c3nc4ccn5c(=O)[nH]nc5c4cc3-c3ccccc3)cc2)CCC1
XAV939 (10000 nM): Oc1nc(-c2ccc(C(F)(F)F)cc2)nc2c1CSCC2
BI-D1870 (1000 nM): CC(C)CCN1c2nc(Nc3cc(F)c(O)c(F)c3)ncc2N(C)C(=O)C1C (stereo not given)
ENMD-2076 (200 nM): Cc1cc(Nc2cc(N3CCN(C)CC3)nc(/C=C/c3ccccc3)n2)n[nH]1
decitabine (500 nM): Nc1ncn([C@H]2C[C@H](O)[C@@H](CO)O2)c(=O)n1
NVP-BEZ235 (20 nM): Cn1c(=O)n(-c2ccc(C(C)(C)C#N)cc2)c2c3cc(-c4cnc5ccccc5c4)ccc3ncc21
vismodegib (5000 nM): CS(=O)(=O)c1ccc(C(=O)Nc2ccc(Cl)c(-c3ccccn3)c2)c(Cl)c1
GSK650394 (800 nM): O=C(O)c1ccc(-c2c[nH]c3ncc(-c4ccccc4)cc23)cc1C1CCCC1
CX-4945 (2000 nM): O=C(O)c1ccc2c(c1)nc(Nc1cccc(Cl)c1)c1ccncc12
indole-3-carbinol (4000 nM): OCc1c[nH]c2ccccc12
crizotinib (1000 nM): C[C@@H](Oc1cc(-c2cnn(C3CCNCC3)c2)cnc1N)c1c(Cl)ccc(F)c1Cl
vorinostat (400 nM): O=C(CCCCCCC(=O)Nc1ccccc1)NO
lapatinib (4000 nM): CS(=O)(=O)CCNCc1ccc(-c2ccc3ncnc(Nc4ccc(OCc5cccc(F)c5)c(Cl)c4)c3c2)o1
JZL184 (5000 nM): O=C(Oc1ccc([N+](=O)[O-])cc1)N1CCC(C(O)(c2ccc3c(c2)OCO3)c2ccc3c(c2)OCO3)CC1
GW2580 (5000 nM): COc1ccc(COc2ccc(Cc3cnc(N)nc3N)cc2OC)cc1
lenalidomide (5000 nM): Nc1cccc2c1CN(C1CCC(=O)NC1=O)C2=O (stereo not given)
bexarotene (10000 nM): C=C(c1ccc(C(=O)O)cc1)c1cc2c(cc1C)C(C)(C)CCC2(C)C
SNS-314 (4 nM): O=C(Nc1cccc(Cl)c1)Nc1ncc(CCNc2ncnc3ccsc23)s1

| # | Second drug | SK-MEL-5 | IST-MEL1 | LB2518-MEL | A375 | SK-MEL-30 | UACC-257 | UACC-62 | IPC-298 | WM1716 | MeWo | WM3619 | G-361 | 501mel | A2058 | C32 |
|---|---|---|---|---|---|---|---|---|---|---|---|---|---|---|---|---|
| 1 | GSK650394 | 39.3 | 344 | 186 | - | 94.5 | 53.8 | 208 | 215 | 155 | 44.4 | 155 | 167 | - | 117 | 112 |
| 2 | FH535 | 121 | 106 | 151 | 476 | 113 | 300 | 121 | 64.3 | 234 | 47.4 | 211 | 203 | 76.0 | 165 | 92.7 |
| 3 | vismodegib | 85.5 | 134 | 198 | 36.0 | 43.5 | 189 | 93.8 | 169 | 99.7 | 14.5 | 301 | 47.7 | - | 39.8 | 59.5 |
| 4 | JZL184 | 215 | 84.1 | 68.8 | 252 | 110 | 72.3 | 230 | 204 | 98.2 | 29.6 | 139 | 139 | 166 | 120 | 91.5 |
| 5 | lapatinib | 272 | 73.6 | 125 | 83.8 | 40.5 | 93.9 | 219 | 106 | 85.0 | 57.7 | 178 | 174 | - | 124 | 462 |
| 6 | A-769662 | 163 | 29.2 | 92.0 | 74.8 | 80.1 | 37.5 | 141 | 49.9 | 115 | 85.4 | 181 | 105 | 64.9 | 61.9 | 114 |
| 7 | lestaurtinib | 244 | 41.0 | 459 | 182 | 102 | 56.3 | 141 | 436 | 60.7 | 120 | 120 | 105 | - | 144 | 22.5 |
| 8 | GW0742 | 45.7 | 113 | 158 | 52.8 | 78.9 | 22.6 | 220 | 95.9 | 56.9 | 117 | 165 | 214 | 132 | 216 | 138 |
| 9 | vorinostat | 454 | 70.4 | 166 | - | 142 | 58.6 | 172 | 94.0 | 43.9 | 107 | 271 | 210 | - | 124 | 133 |
| 10 | GW2580 | 97.5 | 44.8 | - | 125 | 84.8 | 36.3 | 137 | 110 | 59.3 | 39.6 | 170 | 145 | - | 86.2 | 117 |
| 11 | NVP-TAE684 | 284 | 277 | 124 | 369 | 81.2 | 129 | 331 | 205 | 44.8 | 28.8 | 165 | 93.6 | 165 | 410 | 142 |
| 12 | NVP-BEZ235 | 198 | 42.1 | 170 | 54.9 | 19.4 | 30.5 | 257 | 351 | 111 | 88.0 | 145 | 134 | - | 210 | 110 |
| 13 | tipifarnib | 192 | 95.2 | 158 | - | 87.5 | 44.0 | 149 | 116 | 136 | 63.3 | 167 | 69.2 | - | 112 | 66.3 |
| 14 | CX-4945 | 305 | 62.0 | 130 | 438 | 126 | 104 | 358 | 346 | 37.3 | 115 | 165 | 238 | - | 184 | 1260 |
| 15 | crizotinib | 177 | 322 | 55.1 | 56.8 | 111 | 55.7 | 263 | 93.8 | 49.9 | 114 | 145 | 252 | - | 156 | 214 |
| 16 | indole-3-carbinol | 68.3 | 208 | 140 | 41.4 | 11.6 | 116 | 158 | 87.4 | 133 | 48.0 | 133 | 143 | - | 80.0 | 260 |
| 17 | PLX4720 | 284 | 82.8 | 47.3 | 194 | 271 | 129 | 284 | 99.4 | 65.8 | 36.1 | 156 | 113 | - | 149 | 195 |
| 18 | dasatinib | 359 | 105 | 218 | 76.4 | 96.3 | 20.4 | 292 | 194 | 196 | 127 | 184 | 136 | - | 220 | 908 |
| 19 | SNS-314 | 224 | 55.5 | 225 | - | 25.9 | 247 | 126 | 197 | 628 | 71.8 | 102 | 98.7 | - | 221 | 152 |
| 20 | BI-D1870 | 136 | 288 | 225 | 219 | 101 | 21.4 | 325 | 125 | 264 | 176 | 342 | 113 | 237 | 139 | 116 |
| 21 | BMS-536924 | 167 | 170 | 95.1 | - | 272 | 43.7 | 152 | 107 | 146 | 74.7 | 176 | 293 | - | 109 | 108 |
| 22 | MK-2206 | 312 | 43.0 | 215 | 51.2 | 128 | 44.0 | 218 | 49.5 | 156 | 60.3 | 148 | 211 | - | 57.9 | 224 |
| 23 | PF-562271 | 698 | 149 | - | 174 | 150 | 116 | 207 | 51.5 | 89.3 | 32.2 | 185 | 134 | - | 147 | 153 |
| 24 | nilotinib | 65.0 | 61.8 | 61.2 | 51.6 | 32.4 | 113 | 141 | 61.2 | 57.9 | 25.6 | 165 | 241 | - | 67.0 | 239 |
| 25 | lenalidomide | 97.3 | 93.8 | 122 | 136 | 57.7 | 50.2 | 214 | 86.9 | 146 | 108 | 129 | 107 | - | 126 | 253 |
| 26 | decitabine | 112 | 98.6 | 240 | 150 | 97.2 | 57.5 | 125 | 329 | 151 | 82.0 | 148 | 91.2 | - | 209 | 132 |
| 27 | bexarotene | 197 | 104 | 109 | 117 | 70.7 | 23.6 | 245 | 231 | 45.2 | 59.3 | 121 | 72.9 | - | 83.3 | 516 |
| 28 | pazopanib | 227 | 79.3 | 115 | 26.8 | 69.4 | 59.7 | 157 | 284 | 62.4 | 18.8 | 134 | 200 | - | 84.3 | 102 |
| 29 | embelin | 92.7 | 60.1 | 146 | 139 | 142 | 40.9 | 213 | 93.9 | 99.4 | 83.5 | 178 | 855 | 341 | 87.6 | 97.2 |
| 30 | XAV939 | 149 | 119 | 135 | 370 | 194 | 34.3 | 353 | 62.9 | 299 | 108 | 194 | 65.8 | 255 | 168 | 129 |
| 31 | AZD7762 | 518 | 95.3 | 147 | - | 174 | 96.1 | 124 | 46.9 | 270 | 145 | 188 | 75.7 | - | 358 | 164 |
| 32 | ENMD-2076 | 242 | 91.8 | 145 | 40.0 | 76.5 | 66.4 | 226 | 162 | 189 | 41.6 | 153 | 67.4 | - | 133 | 240 |

Once more, the final 2:

{"second drug": "AZD7762", "SK-MEL-5": 518, "IST-MEL1": 95.3, "LB2518-MEL": 147, "SK-MEL-30": 174, "UACC-257": 96.1, "UACC-62": 124, "IPC-298": 46.9, "WM1716": 270, "MeWo": 145, "WM3619": 188, "G-361": 75.7, "A2058": 358, "C32": 164}
{"second drug": "ENMD-2076", "SK-MEL-5": 242, "IST-MEL1": 91.8, "LB2518-MEL": 145, "A375": 40.0, "SK-MEL-30": 76.5, "UACC-257": 66.4, "UACC-62": 226, "IPC-298": 162, "WM1716": 189, "MeWo": 41.6, "WM3619": 153, "G-361": 67.4, "A2058": 133, "C32": 240}

Data from the primary screen of doi:10.1371/journal.pone.0140310, rounded.